Reference: PMC3245448
No constants are given. Whether binding was seen depends on the method and setting. In cells and extracts the contact can be indirect. Some results given as binding are weak or reduced against the parent protein; the word gives no strength.

Chains of the proteins cited; added tags and fusions are not shown.
UniProt Q14247: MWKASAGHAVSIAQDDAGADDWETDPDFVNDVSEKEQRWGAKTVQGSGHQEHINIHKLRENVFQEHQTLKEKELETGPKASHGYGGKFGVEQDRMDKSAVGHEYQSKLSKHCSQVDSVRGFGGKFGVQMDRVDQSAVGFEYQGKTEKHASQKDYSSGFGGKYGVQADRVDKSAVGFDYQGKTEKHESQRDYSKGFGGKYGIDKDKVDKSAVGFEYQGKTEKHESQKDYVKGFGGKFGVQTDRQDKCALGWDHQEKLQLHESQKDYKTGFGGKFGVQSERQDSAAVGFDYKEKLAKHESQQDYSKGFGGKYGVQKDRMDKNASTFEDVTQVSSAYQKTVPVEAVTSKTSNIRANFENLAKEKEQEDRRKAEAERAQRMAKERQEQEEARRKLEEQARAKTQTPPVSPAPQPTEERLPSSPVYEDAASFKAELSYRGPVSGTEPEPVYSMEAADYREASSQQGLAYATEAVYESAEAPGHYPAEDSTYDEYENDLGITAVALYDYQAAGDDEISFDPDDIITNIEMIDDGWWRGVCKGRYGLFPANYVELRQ
UniProt Q05397: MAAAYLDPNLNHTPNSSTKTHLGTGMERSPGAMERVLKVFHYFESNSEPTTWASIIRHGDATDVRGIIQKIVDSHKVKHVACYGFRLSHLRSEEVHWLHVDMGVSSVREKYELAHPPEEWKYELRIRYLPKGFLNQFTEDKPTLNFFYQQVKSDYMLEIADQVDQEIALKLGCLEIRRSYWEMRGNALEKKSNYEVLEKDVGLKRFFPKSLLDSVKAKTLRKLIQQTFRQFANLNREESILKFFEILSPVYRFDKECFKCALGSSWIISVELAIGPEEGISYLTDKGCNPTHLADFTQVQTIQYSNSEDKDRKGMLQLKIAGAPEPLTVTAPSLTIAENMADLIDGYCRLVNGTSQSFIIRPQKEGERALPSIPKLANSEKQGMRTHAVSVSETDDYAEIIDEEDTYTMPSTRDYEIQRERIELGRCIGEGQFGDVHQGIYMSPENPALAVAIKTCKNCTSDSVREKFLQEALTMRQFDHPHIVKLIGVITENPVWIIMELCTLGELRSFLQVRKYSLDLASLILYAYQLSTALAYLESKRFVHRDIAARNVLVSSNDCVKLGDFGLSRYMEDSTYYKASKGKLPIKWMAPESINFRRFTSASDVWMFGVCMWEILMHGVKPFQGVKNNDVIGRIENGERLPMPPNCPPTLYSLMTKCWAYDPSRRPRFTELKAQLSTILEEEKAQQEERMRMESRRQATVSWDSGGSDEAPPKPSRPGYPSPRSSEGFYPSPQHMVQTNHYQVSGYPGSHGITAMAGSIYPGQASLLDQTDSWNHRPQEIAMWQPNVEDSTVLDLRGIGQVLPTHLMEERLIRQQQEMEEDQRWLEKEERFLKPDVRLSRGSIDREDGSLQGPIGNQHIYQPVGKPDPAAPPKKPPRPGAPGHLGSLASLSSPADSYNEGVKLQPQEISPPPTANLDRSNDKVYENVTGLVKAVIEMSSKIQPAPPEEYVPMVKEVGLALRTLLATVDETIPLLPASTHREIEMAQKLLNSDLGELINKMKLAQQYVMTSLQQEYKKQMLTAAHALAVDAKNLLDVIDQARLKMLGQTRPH

How the values were obtained:
[1] = biological target: cortactin (endogenous, adherent HEK293 cells) (human (endogenous in HEK293)) (UniProt Q14247); assay: co-IP; cortactin immunoprecipitated from adherent HEK293 cells with anti-cortactin antibody or control IgG; western blot for FAK and its autophosphorylated form
[2] = biological target: FAK (immunoprecipitation analysis, results not shown) (UniProt Q05397); assay: co-IP; immunoprecipitation analysis, results not shown; cells and antibody not stated

Row | binding [1] | binding [2] | Substance
1 | binds | – | FAK (endogenous, adherent HEK293 cells) (from UniProt Q05397 1-1052)
2 | binds | – | Tyr397-autophosphorylated FAK (endogenous, adherent HEK293 cells) (from UniProt Q05397 1-1052)
3 | – | binds | cortactin (immunoprecipitation analysis, results not shown) (from UniProt Q14247 1-550)
